According to article PMC12139522:
No constants are given. Whether binding was seen depends on the method and setting. Binding seen in cells or lysates may run through a third protein. Some results given as binding are weak or reduced against the parent protein; the word gives no strength. Tags and fused reporters may be left off the sequences shown.

How the values were obtained:
Assay in all cases: co-IP; HEK293 cells co-transfected, lysed in RIPA buffer pH 7.4 (50 mM HEPES, 150 mM NaCl, 1% Triton X-100, 1 mM EDTA); anti-Myc or anti-HA agarose beads; western blot
[1] = molecular target: Myc-TPRN (full-length mouse taperin, N-terminal Myc tag) (mouse) (UniProt A2AI08)
Myc-TPRN^1–410 (mouse) = Myc-TPRN^1–410 (mouse) (UniProt A2AI08)
Myc-TPRN^411–749 (mouse) = Myc-TPRN^411–749 (mouse) (UniProt A2AI08)
Myc-TPRN^171–410 (mouse) = Myc-TPRN^171–410 (mouse) (UniProt A2AI08)
Myc-TPRN^411–622 (mouse) = Myc-TPRN^411–622 (mouse) (UniProt A2AI08)
Myc-TPRN^623–749 (mouse) = Myc-TPRN^623–749 (mouse) (UniProt A2AI08)
Myc-TPRN^1–170 (mouse) = Myc-TPRN^1–170 (mouse) (UniProt A2AI08)

B1: Myc-TPRN (full-length mouse taperin, N-terminal Myc tag) (protein, UniProt A2AI08 1-749)
chain: MAGLGRLDPGPRTVMPAWKREILERRRAKLAALSGGQGSGAAPDGPNERLVLAESLGPLSQNPFMRLESERRRGTRPAQQLLELYCRVPGVRTIRADNILIIESAPGFPPAVPPAAGIRAAEVVVYEAPQPGRVSRLLEKFDSPAAPCRRGSPERFRPALPQLPVASASAATRTPTNRSLAPASPVRLSQPAPPISPVPVAQRAGQRSACCEPAHPDGTAGPGARRSDFLQKTGSNSFTVHPRGLPRSAVNRSLSNGPMTQESPTGPANGLSGSPPVPGKWKPKVESKEPSLHPPPSPGTPSATSVGPPAFPAPSPASATPSQRQWVSSATSANDSFEIRPSSKPDMETIPIGDLQARALANLRVNSRNSFVLIPKRKAPGNYPLAGRQFEEPKGEVGWASQSQGLGSQLVSTVDGAPALEKSPLAAEMQWAVRKGACPRPAISDTDKCVRWQRPASPPPFLPATAEAEPAEGLGVPGLAKNGQEPVRPGLPVTFIDEVDSEEEAFQEAKLPSSAVGVPSQYHLHPARPGHTSELLNRGSNTFTVVPKRKPGTLQEPHLSQTNGQSQQGAEEQDAESLSGPHTTLENTLKKRYPTVHEIEVIGGYLALQKSCLIKAGSSRKKMKISFNDKSLHTTFEYPSESSLAQEEAEEEEEEEGEEDGEEEEVGPDSEKPFTVFLPRATFVSSVGPESSSGLSSYTPKHSMAFSKWQEQTLVQTPTDVELPPKEVMLTPASQNDLSDFRSEPALYF
binding [1]: binds

B2: Myc-TPRN^1–410 (domain or fragment, UniProt A2AI08 1-410)
chain: MAGLGRLDPGPRTVMPAWKREILERRRAKLAALSGGQGSGAAPDGPNERLVLAESLGPLSQNPFMRLESERRRGTRPAQQLLELYCRVPGVRTIRADNILIIESAPGFPPAVPPAAGIRAAEVVVYEAPQPGRVSRLLEKFDSPAAPCRRGSPERFRPALPQLPVASASAATRTPTNRSLAPASPVRLSQPAPPISPVPVAQRAGQRSACCEPAHPDGTAGPGARRSDFLQKTGSNSFTVHPRGLPRSAVNRSLSNGPMTQESPTGPANGLSGSPPVPGKWKPKVESKEPSLHPPPSPGTPSATSVGPPAFPAPSPASATPSQRQWVSSATSANDSFEIRPSSKPDMETIPIGDLQARALANLRVNSRNSFVLIPKRKAPGNYPLAGRQFEEPKGEVGWASQSQGLGSQL
binding (Myc-TPRN^1–410 (mouse)): binds

B3: Myc-TPRN^411–749 (domain or fragment, UniProt A2AI08 411-749)
chain: VSTVDGAPALEKSPLAAEMQWAVRKGACPRPAISDTDKCVRWQRPASPPPFLPATAEAEPAEGLGVPGLAKNGQEPVRPGLPVTFIDEVDSEEEAFQEAKLPSSAVGVPSQYHLHPARPGHTSELLNRGSNTFTVVPKRKPGTLQEPHLSQTNGQSQQGAEEQDAESLSGPHTTLENTLKKRYPTVHEIEVIGGYLALQKSCLIKAGSSRKKMKISFNDKSLHTTFEYPSESSLAQEEAEEEEEEEGEEDGEEEEVGPDSEKPFTVFLPRATFVSSVGPESSSGLSSYTPKHSMAFSKWQEQTLVQTPTDVELPPKEVMLTPASQNDLSDFRSEPALYF
binding (Myc-TPRN^411–749 (mouse)): binds

B4: Myc-TPRN^171–410 (domain or fragment, UniProt A2AI08 171-410)
chain: ATRTPTNRSLAPASPVRLSQPAPPISPVPVAQRAGQRSACCEPAHPDGTAGPGARRSDFLQKTGSNSFTVHPRGLPRSAVNRSLSNGPMTQESPTGPANGLSGSPPVPGKWKPKVESKEPSLHPPPSPGTPSATSVGPPAFPAPSPASATPSQRQWVSSATSANDSFEIRPSSKPDMETIPIGDLQARALANLRVNSRNSFVLIPKRKAPGNYPLAGRQFEEPKGEVGWASQSQGLGSQL
binding (Myc-TPRN^171–410 (mouse)): binds

B5: Myc-TPRN^411–622 (domain or fragment, UniProt A2AI08 411-622)
chain: VSTVDGAPALEKSPLAAEMQWAVRKGACPRPAISDTDKCVRWQRPASPPPFLPATAEAEPAEGLGVPGLAKNGQEPVRPGLPVTFIDEVDSEEEAFQEAKLPSSAVGVPSQYHLHPARPGHTSELLNRGSNTFTVVPKRKPGTLQEPHLSQTNGQSQQGAEEQDAESLSGPHTTLENTLKKRYPTVHEIEVIGGYLALQKSCLIKAGSSRKK
binding (Myc-TPRN^411–622 (mouse)): binds

B6: Myc-TPRN^623–749 (domain or fragment, UniProt A2AI08 623-749)
chain: MKISFNDKSLHTTFEYPSESSLAQEEAEEEEEEEGEEDGEEEEVGPDSEKPFTVFLPRATFVSSVGPESSSGLSSYTPKHSMAFSKWQEQTLVQTPTDVELPPKEVMLTPASQNDLSDFRSEPALYF
binding (Myc-TPRN^623–749 (mouse)): binds

B7: Myc-TPRN^1–170 (domain or fragment, UniProt A2AI08 1-170)
chain: MAGLGRLDPGPRTVMPAWKREILERRRAKLAALSGGQGSGAAPDGPNERLVLAESLGPLSQNPFMRLESERRRGTRPAQQLLELYCRVPGVRTIRADNILIIESAPGFPPAVPPAAGIRAAEVVVYEAPQPGRVSRLLEKFDSPAAPCRRGSPERFRPALPQLPVASASA
binding (Myc-TPRN^1–170 (mouse)): binds
